# In PMC4102813:
# These are yes or no findings as the source states them, for the method shown. In cells and extracts the contact can be indirect. Some binding calls cover weakened binding; strength is not graded here.
# B1: HDAC4, P56524 1-1084 (enzyme)
# chain: MSSQSHPDGLSGRDQPVELLNPARVNHMPSTVDVATALPLQVAPSAVPMDLRLDHQFSLPVAEPALREQQLQQELLALKQKQQIQRQILIAEFQRQHEQLSRQHEAQLHEHIKQQQEMLAMKHQQELLEHQRKLERHRQEQELEKQHREQKLQQLKNKEKGKESAVASTEVKMKLQEFVLNKKKALAHRNLNHCISSDPRYWYGKTQHSSLDQSSPPQSGVSTSYNHPVLGMYDAKDDFPLRKTASEPNLKLRSRLKQKVAERRSSPLLRRKDGPVVTALKKRPLDVTDSACSSAPGSGPSSPNNSSGSVSAENGIAPAVPSIPAETSLAHRLVAREGSAAPLPLYTSPSLPNITLGLPATGPSAGTAGQQDAERLTLPALQQRLSLFPGTHLTPYLSTSPLERDGGAAHSPLLQHMVLLEQPPAQAPLVTGLGALPLHAQSLVGADRVSPSIHKLRQHRPLGRTQSAPLPQNAQALQHLVIQQQHQQFLEKHKQQFQQQQLQMNKIIPKPSEPARQPESHPEETEEELREHQALLDEPYLDRLPGQKEAHAQAGVQVKQEPIESDEEEAEPPREVEPGQRQPSEQELLFRQQALLLEQQRIHQLRNYQASMEAAGIPVSFGGHRPLSRAQSSPASATFPVSVQEPPTKPRFTTGLVYDTLMLKHQCTCGSSSSHPEHAGRIQSIWSRLQETGLRGKCECIRGRKATLEELQTVHSEAHTLLYGTNPLNRQKLDSKKLLGSLASVFVRLPCGGVGVDSDTIWNEVHSAGAARLAVGCVVELVFKVATGELKNGFAVVRPPGHHAEESTPMGFCYFNSVAVAAKLLQQRLSVSKILIVDWDVHHGNGTQQAFYSDPSVLYMSLHRYDDGNFFPGSGAPDEVGTGPGVGFNVNMAFTGGLDPPMGDAEYLAAFRTVVMPIASEFAPDVVLVSSGFDAVEGHPTPLGGYNLSARCFGYLTKQLMGLAGGRIVLALEGGHDLTAICDASEACVSALLGNELDPLPEKVLQQRPNANAVRSMEKVMEIHSKYWRCLQRTTSTAGRSLIEAQTCENEEAETVTAMASLSVGVKPAEKRPDEEPMEEEPPL
# Molecular target: Sp1 (human (endogenous in SPC-A1/DTX)), P08047
# Experiment: co-IP; Co-IP kit (Thermo Fisher); antibodies against Sp1, HDAC1 and HDAC4 coupled into spin columns; pre-cleared SPC-A1/DTX cell lysate; western blot
# Conditions: remark: other sources report otherwise
binder,measurement,value
B1,binding,binds
